This is an account of results in patent publication US9833430B2, “Neurodegenerative disorders and methods of treatment and diagnosis thereof” (The University of Queensland, priority 2013, dated 2017).

The structures appear in SMILES notation.

For one data set, the system named is wild-type mice. Put plainly: Body weight of wild-type mice on triheptanoin diet. It is filed as in vivo.
A further data set concerns hSOD1^G93A mice. The experiment in a line: Body weight and onset of body weight loss in hSOD1^G93A mice. In kind it is in vivo. The text has this: Immediately after weaning, mice were placed on either a standard diet (SF11-027, Specialty Feeds, WA, AUS) or a matched diet (SF11-028, Specialty Feeds) in which 35% of the calories were from triheptanoin oil (Sasol, Germany). All diets were matched in protein, mineral, antioxidant and vitamin content relative to their caloric densities (Thomas et al., 2012). Triheptanoin replaced sucrose, some of the complex carbohydrates and long chain fats in the diet.
Animals underwent behavioral testing approximately 3-4 hours into the light cycle. All behavioral testing was conducted in an environment with minimal stimuli so as to minimize any possible effects caused by changes in external stimuli. Animals were weighed before every test session. Mice were observed, and disease progression tracked and graded according to a neurological score sheet to ensure that any non-ALS related deaths were excluded from the study. The neurological score was adapted from criteria developed at the ALS therapy development institute (Gill et al., 2009). In accordance with ethical requirements, hSOD1^G93A mice that became too weak to reach the food hoppers were provided with wet chow on the floor of the cages. The endpoint of the study was defined as the mouse being unable to right itself within 15 seconds after being placed on its back. […]

As for `CCCCCCC(=O)OCC(COC(=O)CCCCCC)OC(=O)CCCCCC` [triheptanoin, 1,3-di(heptanoyloxy)propan-2-yl heptanoate], the “body weight lighter than control fed mice” value in the data set on wild-type mice (at 14 weeks of age) is given as “approximately 3 g”; in the data set with wild-type mice (at 22 weeks of age) it was “approximately 4 g”. The “body weight gain from 7-16 weeks vs control diet” value in the data set with hSOD1^G93A mice (hSOD1^G93A mice) was “trend of reduced body weight gain”. Further, the “body weight vs control diet over the full time period” value in the data set on hSOD1^G93A mice (hSOD1^G93A mice with 19-24 transgene copies) is given as “no statistically significant differences”.
